The subject of the assay is BDF1 mice, P388 leukemia ip, median survival T/C. The assay is described as follows: NCI In Vivo Anticancer Drug Screen. Data for tumor model P388 Leukemia (intraperitoneal) in B6D2F1 (BDF1) mice. Particulars: T/C endpoint: median survival time, higher T/C = longer survival. Put shortly:
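Compound-treated tumour-bearing mice were compared with vehicle-treated controls. Survival was recorded, and the value is the treated-group measurement divided by the control-group measurement (T/C).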

Setting [1] is: dose: 400.0 mg/kg/injection, schedule: Q04DX003 (ip), vehicle: Klucel (hydroxypropylcellulose) (HPC).
Where [2] appears, read: dose: 100.0 mg/kg/injection, schedule: Q01DX009 (ip), vehicle: saline.
Where [3] appears, read: dose: 400.0 mg/kg/injection, schedule: Q01DX009 (ip), vehicle: saline.
The mark [4] stands for this setting: dose: 400.0 mg/kg/injection, schedule: Q01DX009 (ip), vehicle: Klucel (hydroxypropylcellulose) (HPC).
Setting [5] is: dose: 200.0 mg/kg/injection, schedule: Q04DX003 (ip), vehicle: Klucel (hydroxypropylcellulose) (HPC).
[6] abbreviates: dose: 100.0 mg/kg/injection, schedule: Q01DX009 (ip), vehicle: saline with Tween-80.

Results on 28 molecules are retold here after PubChem BioAssay AID328 (DTP/NCI, 2004).

The list is a part of this screen's results and no random one: it gathers tests that were run many times, whatever their T/C, doses with no T/C, and many T/C values between a quarter and a half above the control. Further doses and runs are listed elsewhere. T/C gives the treated animals as a percentage of the vehicle group. Some entries give survivors of the animals treated and no T/C: the source files T/C as zero there, which appears to mark a toxic dose or a test without result, not a measured value. Some survivor counts are full or nearly so, which does not show that the dose was tolerated: the source hardly ever lists a survival T/C far under the control, and the zero likely stands for such cases as well. Counts of survivors are from the toxicity check (mostly the fifth day) where no day follows; animals may have died later. Schedule codes are those of the source, taken here to give the interval after Q, in days (D) or hours (H), and the number of doses after X. Some molecules as drawn cover several salts, stereoisomers or complexes of the source; a dose is that of the sample tested. Where survival is the endpoint, this PubChem deposit counts one and a half times the control or more as active, and values a quarter to a half above the control carry no call in these data; other NCI protocols may use other cut-offs. Some entries were tested several times; their values stand side by side, smallest first. Some T/C values carry the count of animals alive at the toxicity check (mostly the fifth day); where none is given, no animal had died by that day. Non-standard residues stand in square brackets, D forms with d. Residues, ends and D or L forms follow the SMILES beside them. Ac5c = NC1(C(=O)O)CCCC1

As for `CCCCCCCCCCCCCCOc1ccc(Cc2ccccc2)cc1`, the survivor count under setting [1] is listed as 6 of 6.
With `CCCCCCCSc1ncnc2c1ncn2CO`, the T/C under setting [2] is 135 % of control and the T/C (dose: 200.0 mg/kg/injection, schedule: Q01DX009 (ip), vehicle: saline) is 125 % of control. The survivor count is, setting by setting: under setting [3], 6 of 6; (dose: 800.0 mg/kg/injection, schedule: Q01DX009 (ip), vehicle: saline) 1 of 6.
In the case of `CCCCN(C)c1ncnc2[nH]ncc12`, the survivor count under setting [2] is 6 of 6.
For the molecule `Cc1n(CC(C)C)c2c([n+]1C)C(=O)c1ccccc1C2=O`, the survivor count runs as follows: (dose: 2.0 mg/kg/injection, schedule: Q01DX010 (ip), vehicle: saline) 6 of 6; (dose: 4.0 mg/kg/injection, schedule: Q01DX009 (ip), vehicle: saline) 0 of 6; (dose: 4.0 mg/kg/injection, schedule: Q01DX010 (ip), vehicle: saline) 0 of 6; (dose: 8.0 mg/kg/injection, schedule: Q01DX009 (ip), vehicle: saline) 0 of 6; (dose: 8.0 mg/kg/injection, schedule: Q01DX010 (ip), vehicle: saline) 0 of 6.
With `CC(=O)NNC(=O)c1ccccc1`, the T/C (dose: 100.0 mg/kg/injection, schedule: Q04DX003 (ip), vehicle: Klucel (hydroxypropylcellulose) (HPC)) is 127 % of control. Besides, the survivor count is reported as 3 of 6 (dose: 300.0 mg/kg/injection, schedule: Q01DX009 (ip), vehicle: Klucel (hydroxypropylcellulose) (HPC)) and 4 of 6 under setting [4].
`NCC(=O)NC1(C(=O)O)CCCC1` (H-Gly-[Ac5c]-OH): the survivor count under setting [3] is reported as 6 of 6.
On to `NC(=O)Oc1cccc(OC(N)=O)c1`, for which the T/C (dose: 200.0 mg/kg/injection, schedule: Q04DX003 (ip), vehicle: water) is 134 % of control.
`CC(=O)OC1=NC(C)c2c1cc(OC(C)=O)[nH]c2=O` (stereo not given): the T/C under setting [5] was 126 and 133 % of control. Further, the survivor count runs as follows: (dose: 300.0 mg/kg/injection, schedule: Q04DX003 (ip), vehicle: Klucel (hydroxypropylcellulose) (HPC)) 6 of 6; under setting [1], 1 of 6.
As to `Cc1cc(Cl)n[nH]1`, the survivor count runs as follows: (dose: 50.0 mg/kg/injection, schedule: Q01DX009 (ip), vehicle: saline with Tween-80) 7 of 7; under setting [6], 5 of 7.
In the case of `CCCCCCC[CH2][Sn](=[O])[CH2]CCCCCCC`, the survivor count (dose: 50.0 mg/kg/injection, schedule: Q01DX009 (ip), vehicle: Klucel (hydroxypropylcellulose) (HPC)) was 3 of 6; the survivor count (dose: 75.0 mg/kg/injection, schedule: Q04DX003 (ip), vehicle: other) is on record as 6 of 6; the survivor count (dose: 100.0 mg/kg/injection, schedule: Q01DX009 (ip), vehicle: Klucel (hydroxypropylcellulose) (HPC)) was 1 of 6; the survivor count under setting [5] is 6 of 6. The T/C (dose: 50.0 mg/kg/injection, schedule: Q04DX003 (ip), vehicle: Klucel (hydroxypropylcellulose) (HPC)) is 136 % of control.
Regarding `COc1ccc2c(c1)N(C(=O)N(CCOC(=O)Nc1ccccc1)CCOC(=O)Nc1ccccc1)c1ccccc1S2`, the survivor count under setting [6] is reported as 6 of 6.
For `O=C(NO)c1cccnc1`, the T/C (dose: 445.0 mg/kg/injection, schedule: Q01DX010 (ip), vehicle: water) is 126 % of control [5 of 6 alive] and the T/C (dose: 670.0 mg/kg/injection, schedule: Q01DX010 (ip), vehicle: water) was 138 % of control. Moreover, the survivor count (dose: 1000.0 mg/kg/injection, schedule: Q01DX010 (ip), vehicle: water) is 1 of 6.
Consider `CC(=O)O.[Au].c1ccc([PH+](c2ccccc2)c2ccccc2)cc1`, for which the survivor count reads like this: (dose: 200.0 mg/kg/injection, schedule: Q04DX003 (ip), vehicle: saline with Tween-80) 1 of 6; (dose: 400.0 mg/kg/injection, schedule: Q04DX003 (ip), vehicle: saline with Tween-80) 0 of 6.
Regarding `[O-]/C(CCl)=N\[n+]1c2c(nc3ccccc31)-c1cccc3cccc-2c13`, the T/C (dose: 50.0 mg/kg/injection, schedule: Q01DX001 (ip), vehicle: Klucel (hydroxypropylcellulose) (HPC)) was 135 % of control.
`Nc1nccnc1C(=O)O`: under “dose: 200.0 mg/kg/injection, schedule: Q01DX009 (ip), vehicle: water”, the T/C was 126 % of control.
`CCN(c1ccccc1)c1ccc(C=O)cc1`: the survivor count under setting [1] is 6 of 6.
Turning to `CCCCCCCCSC(=S)N(C)NC(=O)c1ccccn1`, the survivor count (dose: 200.0 mg/kg/injection, schedule: Q01DX009 (ip), vehicle: saline with Tween-80) was 3 of 6.
Turning to `CCCCCCc1c(C(OC)OC)[nH]c(=S)[nH]c1=O`, under setting [4], the survivor count is reported as 4 of 6.
Regarding `O=C(Nc1cccc(C(F)(F)F)c1)C12CC3CC(CC(C3)C1)C2`, where the note is “dose: 25.0 mg/kg/injection, schedule: Q01DX009 (ip), vehicle: saline with Tween-80”, the survivor count is given as 6 of 6.
For `O=[N+]([O-])c1ccc(S(=O)c2ccc([N+](=O)[O-])cc2)cc1`, the survivor count under setting [4] is on record as 5 of 6.
On to `c1ccc([I+]c2ccccc2)cc1`, for which the survivor count is, setting by setting: (dose: 25.0 mg/kg/injection, schedule: Q04DX003 (ip), vehicle: saline sonified) 6 of 6; (dose: 50.0 mg/kg/injection, schedule: Q04DX003 (ip), vehicle: saline sonified) 0 of 6; (dose: 50.0 mg/kg/injection, schedule: Q04DX003 (sc), vehicle: olive oil, sesame oil, peanut oil) 2 of 6; (dose: 100.0 mg/kg/injection, schedule: Q04DX003 (sc), vehicle: olive oil, sesame oil, peanut oil) 0 of 6; (dose: 200.0 mg/kg/injection, schedule: Q04DX003 (sc), vehicle: olive oil, sesame oil, peanut oil) 0 of 6; (dose: 400.0 mg/kg/injection, schedule: Q04DX003 (sc), vehicle: olive oil, sesame oil, peanut oil) 0 of 6.
Take `O=C(/C=C/c1cccc(Br)c1)c1ccc(Cl)cc1`: for the setting “dose: 200.0 mg/kg/injection, schedule: Q01DX009 (ip), vehicle: other”, the T/C was 130 % of control.
For `Clc1ccc(N=C(SSC(Cl)(Cl)Cl)SSC(Cl)(Cl)Cl)cc1`, the survivor count under setting [6] is 6 of 6.
`CN(C(=S)SSC(=S)N(C)c1ccccc1)c1ccccc1`: the survivor count (dose: 100.0 mg/kg/injection, schedule: Q01DX001 (ip), vehicle: Klucel (hydroxypropylcellulose) (HPC)) is 6 of 6.
With `CN1CC2([N+](=O)[O-])C=CCC([N+](=O)[O-])(C1)C2` (stereo not given), under “dose: 400.0 mg/kg/injection, schedule: Q01DX009 (ip), vehicle: water”, the survivor count is listed as 5 of 6.
In the case of `O=C1OC2CCC3C1C3C2Br` (stereo not given), under “dose: 105.0 mg/kg/injection, schedule: Q04DX003 (ip), vehicle: Klucel (hydroxypropylcellulose) (HPC)”, the survivor count was 0 of 6.
As to `C[P+](Cc1ccc([N+](=O)[O-])cc1)(c1ccccc1)c1ccccc1`, the survivor count reads like this: (dose: 0.78 mg/kg/injection, schedule: Q01DX009 (ip), vehicle: Klucel (hydroxypropylcellulose) (HPC)) 6 of 6; (dose: 3.12 mg/kg/injection, schedule: Q01DX009 (ip), vehicle: Klucel (hydroxypropylcellulose) (HPC)) 5 of 6; (dose: 6.25 mg/kg/injection, schedule: Q01DX009 (ip), vehicle: Klucel (hydroxypropylcellulose) (HPC)) 6 of 6; (dose: 25.0 mg/kg/injection, schedule: Q04DX003 (ip), vehicle: Klucel (hydroxypropylcellulose) (HPC)) 6 of 6.
For `C[C@]12CC[C@@H]3c4ccc(O)cc4CC[C@H]3[C@@H]1CC[C@@H]2O`, under “dose: 200.0 mg/kg/injection, schedule: Q01DX009 (ip), vehicle: Klucel (hydroxypropylcellulose) (HPC)”, the survivor count is listed as 6 of 6.
